These are yes or no findings as the source states them, for the method shown. In cells and extracts the contact can be indirect. Binding calls can cover weak binding; strength is not graded here. For some assays here: Sequences can lack the tags named with a protein.
Tests used:
[1] = target: T1, PalmD-GFP (UniProt Q9NP74); assay: co-IP; exogenous epitope-tagged constructs co-transfected in HEK293 cells, lysed 24-48 h later; Protein-A and Protein-G Dynabeads, 4°C
T1 sequence: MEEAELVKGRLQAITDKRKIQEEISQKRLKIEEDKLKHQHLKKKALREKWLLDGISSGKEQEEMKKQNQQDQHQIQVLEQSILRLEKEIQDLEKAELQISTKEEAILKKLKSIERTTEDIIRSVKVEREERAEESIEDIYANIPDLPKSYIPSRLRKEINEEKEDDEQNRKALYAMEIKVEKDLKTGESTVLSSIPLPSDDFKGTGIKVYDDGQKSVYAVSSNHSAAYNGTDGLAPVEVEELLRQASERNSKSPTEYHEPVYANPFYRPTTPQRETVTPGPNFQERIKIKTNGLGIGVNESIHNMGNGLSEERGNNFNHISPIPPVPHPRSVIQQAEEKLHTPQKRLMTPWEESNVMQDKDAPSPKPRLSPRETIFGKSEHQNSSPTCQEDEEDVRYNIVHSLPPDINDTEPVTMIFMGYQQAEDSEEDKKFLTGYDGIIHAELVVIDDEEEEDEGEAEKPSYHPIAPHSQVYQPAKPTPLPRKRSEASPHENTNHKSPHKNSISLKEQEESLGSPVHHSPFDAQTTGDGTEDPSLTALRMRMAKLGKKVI

Sequences of proteins named here, by UniProt entry; tags and fusion partners are left off. A change or cut given only in a name is not applied to a line headed by its entry.
UniProt O35116: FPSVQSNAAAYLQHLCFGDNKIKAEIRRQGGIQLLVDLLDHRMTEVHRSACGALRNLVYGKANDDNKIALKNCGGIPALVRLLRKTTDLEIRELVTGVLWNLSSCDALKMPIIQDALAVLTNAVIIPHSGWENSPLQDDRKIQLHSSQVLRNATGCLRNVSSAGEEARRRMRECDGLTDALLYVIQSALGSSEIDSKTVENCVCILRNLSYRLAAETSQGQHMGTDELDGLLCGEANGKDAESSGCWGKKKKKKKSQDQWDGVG

[2] = target: T2, Pdlim5 (endogenous, rat primary neurons) (rat (endogenous in rat primary neurons)) (UniProt Q62920); assay: proximity ligation; endogenous proteins in rat primary hippocampal neurons fixed at DIV4; Duolink PLA kit; puncta counted in processes
T2 sequence: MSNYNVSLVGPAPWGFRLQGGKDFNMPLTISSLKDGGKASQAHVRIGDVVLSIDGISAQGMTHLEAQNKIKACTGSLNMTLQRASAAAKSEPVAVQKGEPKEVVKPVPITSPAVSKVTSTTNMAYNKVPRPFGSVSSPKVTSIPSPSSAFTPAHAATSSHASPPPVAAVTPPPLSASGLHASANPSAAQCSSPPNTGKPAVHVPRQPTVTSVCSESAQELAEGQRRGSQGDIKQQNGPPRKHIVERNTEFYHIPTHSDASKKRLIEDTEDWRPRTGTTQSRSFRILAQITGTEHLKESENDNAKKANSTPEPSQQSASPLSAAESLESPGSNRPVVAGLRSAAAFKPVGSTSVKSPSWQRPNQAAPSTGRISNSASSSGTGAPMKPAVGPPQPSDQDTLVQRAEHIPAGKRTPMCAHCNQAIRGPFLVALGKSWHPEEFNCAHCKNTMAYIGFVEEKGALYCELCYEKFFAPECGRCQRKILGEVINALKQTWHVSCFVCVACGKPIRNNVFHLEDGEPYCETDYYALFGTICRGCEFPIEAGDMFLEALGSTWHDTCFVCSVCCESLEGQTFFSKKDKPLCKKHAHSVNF

Substance | binding [1] | binding [2]
Pdlim5_isolated LIM domain (from UniProt Q62920) (domain or fragment) | binds | –
delta-catenin (endogenous, rat primary hippocampal neurons) (from UniProt O35116) | – | binds

Reference: article PMC10896979
